Experiments:
Conditions in all cases: 72 h
[1] = tested on: Vero E6; experiment: relative viability EC50 (midpoint between 100% and the lowest measured viability); higher = less toxic
[2] = tested on: Caco-2; experiment: cell viability relative to DMSO; higher = less toxic
[3] = tested on: HepG2; experiment: as above
[4] = tested on: Vero E6; experiment: as above
[5] = tested on: U2OS; experiment: as above
[6] = tested on: Calu-3; experiment: as above

COc1cc2ncnc(Nc3ccc(F)c(Cl)c3)c2cc1OCCCN1CCOCC1 [gefitinib]
Conditions	relative viability EC50 [nM]
[1]	605

cell viability [%]
Conditions	[2]	[3]	[4]	[5]	[6]
1 nM	110	91.8	94.3	101	91.5
10 nM	102	91.5	93.2	103	105
100 nM	87.8	95.2	83.9	93.4	72.7
1000 nM	82.9	89.5	63.1	93.1	48.4
10000 nM	58.6	56.3	29.5	70.4	14.4

Source: the supplement of paper PMC13380429
